Laboratory results: publication PMC8406268
These are yes or no findings as the source states them, for the method shown. Binding seen in cells or lysates may run through a third protein. Here binding means that the protein was enriched with, or labelled near, the bait; the list need not be complete. A no says only that the protein was not detected with the bait. Sequences can lack the tags named with a protein.

Amino acid sequences for entries named in this document (tags omitted).
UniProt A0A0H3JV59: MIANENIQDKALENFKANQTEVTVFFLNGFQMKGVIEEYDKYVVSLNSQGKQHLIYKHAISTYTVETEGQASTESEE

B1: S. aureus hibernation-promoting factor (protein, UniProt Q2YSH7 1-190)
chain: MIRFEIHGDNLTITDAIRNYIEEKIGKLERYFNDVPNAVAHVKVKTYSNSATKIEVTIPLKNVTLRAEERNDDLYAGIDLINNKLERQVRKYKTRINRKSRDRGDQEVFVAELQEMQETQVDNDAYDDNEIEIIRSKEFSLKPMDSEEAVLQMNLLGHDFFVFTDRETDGTSIVYRRKDGKYGLIQTSEQ

Each molecule was assayed against T1, 3×FLAG-tagged S. aureus RNase R (S. aureus) (UniProt Q2G024) (assay: affinity purification with mass spectrometry; 3×FLAG-Rnr from S. aureus lysate held on anti-FLAG M2 magnetic beads; buffer C (50 mM Tris-Cl pH 7.5, 100 mM KCl, 1 mM PMSF, 10 mM MgCl2); 1 h at ~22°C and 15 h at 4°C; eluted with glycine pH 2.6; LC-MS/MS; untagged control in parallel).
T1 sequence (chain, methylated Q538 (found by LC-MS/MS of the immunoprecipitated protein)): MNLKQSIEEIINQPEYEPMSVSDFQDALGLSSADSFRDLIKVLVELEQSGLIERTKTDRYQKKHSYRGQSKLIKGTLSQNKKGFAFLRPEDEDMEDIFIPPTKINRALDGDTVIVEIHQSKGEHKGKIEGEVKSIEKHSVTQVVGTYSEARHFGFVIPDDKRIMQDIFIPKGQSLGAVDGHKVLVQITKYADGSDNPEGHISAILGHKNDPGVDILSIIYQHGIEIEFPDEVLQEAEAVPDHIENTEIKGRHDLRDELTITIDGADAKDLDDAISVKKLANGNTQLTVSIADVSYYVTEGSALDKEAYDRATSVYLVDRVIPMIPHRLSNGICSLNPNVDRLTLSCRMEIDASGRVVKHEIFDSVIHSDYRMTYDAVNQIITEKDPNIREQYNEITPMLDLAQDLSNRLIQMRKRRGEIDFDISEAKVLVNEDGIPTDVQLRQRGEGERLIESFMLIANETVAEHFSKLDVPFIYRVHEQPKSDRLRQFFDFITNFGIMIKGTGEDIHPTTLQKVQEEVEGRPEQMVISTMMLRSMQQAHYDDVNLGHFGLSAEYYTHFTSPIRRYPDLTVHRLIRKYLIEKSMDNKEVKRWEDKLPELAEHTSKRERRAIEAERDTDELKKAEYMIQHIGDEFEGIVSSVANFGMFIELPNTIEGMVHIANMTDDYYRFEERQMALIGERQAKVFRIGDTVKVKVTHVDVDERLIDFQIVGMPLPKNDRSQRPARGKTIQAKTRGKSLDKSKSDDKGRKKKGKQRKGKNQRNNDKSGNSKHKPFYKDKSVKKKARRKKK
30S ribosomal protein uS12 was tested, and the binding was “binds”. In the case of “S. aureus Hfq (from UniProt A0A0H3JV59 1-77)”, the binding is reported as “no binding”. In the case of S. aureus PNPase (enzyme), the binding is reported as “no binding”. With “S. aureus SmpB (protein of the tmRNA-SmpB complex)” the binding was “no binding”. S. aureus YbeY (enzyme) was tested, and the binding was “no binding”.

Molecular target: T1, 3×FLAG-tagged S. aureus RNase R (S. aureus)
Assay: as above
Remark: another data set of the same source
In the case of B1, the binding is reported as “no binding”.
